Assay results published in PubChem BioAssay AID1671190 (National Center for Advancing Translational Sciences (NCATS), 2021).
Hit rate of the full screen: of about 580,000 compounds, about 6,100 (1.1%) were called active. The inconclusive results got no clear call from the source; some entries with a clear call stand among them for comparison. Calls follow the shape of the dose curve; as a rule, active = well fitted inhibition curve with a large enough effect; inconclusive = small, poorly fitted or top-dose-only effect, or another doubt; inactive = no such curve, though single readings can be large or run the other way. A potency beside an inconclusive call is a rough fit, not a confirmed value.

By UniProt entry, the sequences of proteins in these tests, tags left out. Where a name states a change or a piece, a line headed by the entry shows the natural chain unless it says otherwise.
UniProt P18054: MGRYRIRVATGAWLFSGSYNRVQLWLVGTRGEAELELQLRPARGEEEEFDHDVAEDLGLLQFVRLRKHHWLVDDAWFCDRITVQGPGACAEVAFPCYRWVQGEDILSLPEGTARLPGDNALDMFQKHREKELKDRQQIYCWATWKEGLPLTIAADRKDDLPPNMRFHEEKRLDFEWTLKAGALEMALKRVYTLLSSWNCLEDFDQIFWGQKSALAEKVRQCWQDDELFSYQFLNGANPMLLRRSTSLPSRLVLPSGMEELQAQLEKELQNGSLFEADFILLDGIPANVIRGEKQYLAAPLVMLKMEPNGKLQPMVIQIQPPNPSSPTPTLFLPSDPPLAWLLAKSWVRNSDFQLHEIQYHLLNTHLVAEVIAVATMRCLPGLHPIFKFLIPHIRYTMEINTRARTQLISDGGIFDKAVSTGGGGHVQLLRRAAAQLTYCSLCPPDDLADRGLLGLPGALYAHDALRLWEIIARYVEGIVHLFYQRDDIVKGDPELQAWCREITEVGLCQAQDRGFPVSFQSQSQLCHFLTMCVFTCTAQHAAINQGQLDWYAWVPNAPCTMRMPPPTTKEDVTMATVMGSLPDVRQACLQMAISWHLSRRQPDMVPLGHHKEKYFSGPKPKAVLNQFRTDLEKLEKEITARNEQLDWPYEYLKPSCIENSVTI

The molecules below were run against Polyunsaturated fatty acid lipoxygenase ALOX12 (Homo sapiens) (UniProt P18054) (assay: Primary qHTS assay for inhibitors of human arachidonate 12S-lipoxygenase (ALOX12): Round 2). Details: purified 12hLO, xylenol orange hydroperoxide absorbance; activity change, negative = inhibition: at 108 µM (top of the series) unless noted.
Summary of the method: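 Hydroperoxide product was detected by ferrous iron/xylenol orange as the 573 to 405 nm absorbance ratio. Arachidonic acid at 40 uM (final) was turned over for 30 min at room temperature by 150 nM human 12hLO, pH 7.0 Hepes buffer, after 15 min compound preincubation.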
% is scaled to controls: 0 for no effect and ±100 for the full control effect; potency is read from the fitted curve at half-maximal effect.

| Compound | Potency | activity change, negative = inhibition |
| --- | --- | --- |
| CC[C@]12C=CCN3CC[C@@]4(c5cc([C@@]6(C(=O)OC)C[C@H]7C[C@@H](C(C)(F)F)CN(Cc8c6[nH]c6ccccc86)C7)c(OC)cc5N(C)[C@H]4[C@@](O)(C(=O)OC)[C@H]1OC(C)=O)[C@@H]32 | inconclusive: 6.11 µM [inhibitor, full curve] | – |
| CCCN1CCN(CCCN2C(=O)c3ccccc3C2C(=O)NC2CCCCCC2)CC1 (stereo not given) | inconclusive: 4.47 µM [inhibitor, full curve, poor fit] | – |
| Cc1ccc(C(=O)OCC(=O)c2ccc(-c3ccccc3)cc2)s1 | – | inactive: -45% |
| CN(C)C(=S)NC(=O)C(c1ccccc1)c1ccccc1 | – | inactive: 4.26% |
| COc1ccc(N2Cc3ccccc3C2)cc1Cl | inconclusive: 35.5 µM [inhibitor, single point] | – |
| NC1CCOCC1 | – | inactive: 10.3% |
| O=C(OCC1CCCO1)c1cccc(O)c1 (stereo not given) | – | inconclusive: -32.1% [inhibitor] |
| COc1ccc(NC(=O)c2cc(-c3ccc(F)cc3OC(C)C)n[nH]2)cn1 | – | inactive: -25.3% |
| COc1ccc(C(=O)N2C(C(=O)NCc3ccco3)COC23CCN(C(=O)CC(C)(C)C)CC3)cc1 (stereo not given) | – | inactive: 10.5% |
| N#Cc1ccc(Oc2ccc(C(N)=O)cc2)cc1C#N | inconclusive: 112 µM [inhibitor, partial curve, poor fit] | – |
| CCO[C@H]1OC(C(=O)N2CCCCCCC2)=C[C@@H](c2csc3ccccc23)[C@@H]1CCCO | – | inactive: 21.7% |
| Cc1ccc(C(c2ccc(C)o2)c2cccc([N+](=O)[O-])c2O)o1 | inconclusive: 89.1 µM [inhibitor, partial curve, poor fit] | – |
| CCCCOC(=O)CCc1c(C)[nH]c(=S)[nH]c1=O | inconclusive: 31.6 µM [inhibitor, partial curve, poor fit] | – |
| COc1ccc(C)cc1NC(=O)CNC(=O)CNc1ccccc1Cl | – | inactive: 2.98% |
| CC(C)c1ccc(C(=O)NCc2ccc(Cl)cc2)cc1 | inconclusive: 79.4 µM [inhibitor, partial curve, poor fit] | – |
| Cc1ccc(-c2c[nH]c(=S)n2-c2ccccc2F)cc1 | active: 35.5 µM | – |
| CC1=C/C(=C(/c2ccc(O)c(C)c2)c2ccccc2S(=O)(=O)O)C=CC1=O | inconclusive: 50.1 µM [inhibitor, partial curve, poor fit] | – |
| Cn1cnnc1CC1CCCN(C(=O)C2CCCC2)C1 (stereo not given) | inconclusive: 10 µM [inhibitor, full curve] | – |
| Cn1cccc1C(=O)OCC(=O)c1ccc(Br)s1 | inconclusive: 79.4 µM [inhibitor, partial curve, poor fit] | – |
| CC(C)C(C(=O)NCC1CCCO1)N(C(=O)CNS(=O)(=O)c1ccccc1)C1CCCCC1 (stereo not given) | inconclusive: 50.1 µM [inhibitor, partial curve, poor fit] | – |

Reprinted at random: two records from the list.

| Compound | Potency | activity change, negative = inhibition |
| --- | --- | --- |
| COc1ccc(C)cc1NC(=O)CNC(=O)CNc1ccccc1Cl | – | inactive: 2.98% |
| Cc1ccc(C(c2ccc(C)o2)c2cccc([N+](=O)[O-])c2O)o1 | inconclusive: 89.1 µM [inhibitor, partial curve, poor fit] | – |
